The text below walks through data of US20240042032A1 (TENEOBIO, published 2024).

The chains behind the UniProt entries cited, without tags or fusion partners. Residues count along the entry.
UniProt P15391, residues 20-291: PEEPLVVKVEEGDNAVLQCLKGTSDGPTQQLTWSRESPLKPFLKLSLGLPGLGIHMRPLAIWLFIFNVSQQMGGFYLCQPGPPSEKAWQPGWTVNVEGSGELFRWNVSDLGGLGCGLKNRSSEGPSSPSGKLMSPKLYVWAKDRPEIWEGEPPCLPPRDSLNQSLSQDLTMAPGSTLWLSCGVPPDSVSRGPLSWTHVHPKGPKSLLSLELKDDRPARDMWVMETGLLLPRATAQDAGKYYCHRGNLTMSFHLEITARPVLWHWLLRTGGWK

The assay has as its target human CD19 protein (ELISA antigen) (human) (UniProt P15391). The assay can be described thus: ELISA on human CD19 protein.

These are yes or no findings as the source states them, for the method shown. Some results given as binding are weak or reduced against the parent protein; the word gives no strength.

B1: anti-CD19 heavy chain-only antibody (UniAb) clone ID 370083 (antibody, V domains shown)
VH: QVQLVESGGGLVKPGGSLRLSCAASGFTFSDYYMSWIRQAPGKGLEWVSYMSSSGSTIYYADSVKGRFTISRDNAKNSLYLQMTSLRAEDTAVYYCARGGIAATGTWGQGTLVTVSS
notes: Heavy chain-only antibody with no light chain, tested as purified UniAb and detected with anti-human IgG; Only the VH is tied to the clone
Take B1: the binding entry is given as “binds”.

B2: anti-CD19 heavy chain-only antibody (UniAb) clone ID 370034 (antibody, V domains shown)
VH: QVQLVESGGGLVKPGGSLRLSCAASGFTFSDYYMSWIRQAPGKGLEWVSYMSSSGSTIYYADSVKGRFTISRDNAKKSLYLQMNSLRAEDTAVYYCARGGIAAAGTWGQGTLVTVSS
notes: Heavy chain-only antibody with no light chain, tested as purified UniAb and detected with anti-human IgG; Only the VH is tied to the clone; also called HCAb 370034
B2: the binding result is listed as “binds”.
